Among the data in paper PMC6872557 are binding values, retold here.

Protein sequences, listed by entry. Tags and fused reporters are not part of them.
UniProt P84022: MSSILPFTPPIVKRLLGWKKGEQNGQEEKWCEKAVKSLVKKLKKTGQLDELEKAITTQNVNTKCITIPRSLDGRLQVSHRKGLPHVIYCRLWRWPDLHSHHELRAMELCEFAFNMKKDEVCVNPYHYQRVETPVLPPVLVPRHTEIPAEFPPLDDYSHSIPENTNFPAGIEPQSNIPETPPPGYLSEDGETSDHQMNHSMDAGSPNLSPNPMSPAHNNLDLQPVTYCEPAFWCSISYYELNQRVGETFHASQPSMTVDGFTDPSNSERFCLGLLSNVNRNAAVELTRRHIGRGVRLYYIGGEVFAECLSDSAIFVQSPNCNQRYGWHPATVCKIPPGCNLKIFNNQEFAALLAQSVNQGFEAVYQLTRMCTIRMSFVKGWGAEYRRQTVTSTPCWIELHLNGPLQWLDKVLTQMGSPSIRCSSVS
UniProt Q13485: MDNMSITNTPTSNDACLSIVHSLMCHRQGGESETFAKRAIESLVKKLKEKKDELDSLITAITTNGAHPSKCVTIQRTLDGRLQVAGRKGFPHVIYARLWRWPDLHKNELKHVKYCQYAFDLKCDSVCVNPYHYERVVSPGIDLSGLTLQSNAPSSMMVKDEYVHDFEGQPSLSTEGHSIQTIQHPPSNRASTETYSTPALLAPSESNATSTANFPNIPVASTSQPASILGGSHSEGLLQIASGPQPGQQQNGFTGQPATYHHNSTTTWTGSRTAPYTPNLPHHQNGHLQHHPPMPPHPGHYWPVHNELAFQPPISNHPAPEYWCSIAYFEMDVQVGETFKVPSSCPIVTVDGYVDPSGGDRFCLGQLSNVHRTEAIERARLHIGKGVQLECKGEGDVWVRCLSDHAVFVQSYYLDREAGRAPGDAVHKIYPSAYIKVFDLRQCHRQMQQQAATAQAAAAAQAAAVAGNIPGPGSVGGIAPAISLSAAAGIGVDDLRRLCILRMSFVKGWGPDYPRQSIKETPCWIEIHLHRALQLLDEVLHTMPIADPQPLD
UniProt Q13547: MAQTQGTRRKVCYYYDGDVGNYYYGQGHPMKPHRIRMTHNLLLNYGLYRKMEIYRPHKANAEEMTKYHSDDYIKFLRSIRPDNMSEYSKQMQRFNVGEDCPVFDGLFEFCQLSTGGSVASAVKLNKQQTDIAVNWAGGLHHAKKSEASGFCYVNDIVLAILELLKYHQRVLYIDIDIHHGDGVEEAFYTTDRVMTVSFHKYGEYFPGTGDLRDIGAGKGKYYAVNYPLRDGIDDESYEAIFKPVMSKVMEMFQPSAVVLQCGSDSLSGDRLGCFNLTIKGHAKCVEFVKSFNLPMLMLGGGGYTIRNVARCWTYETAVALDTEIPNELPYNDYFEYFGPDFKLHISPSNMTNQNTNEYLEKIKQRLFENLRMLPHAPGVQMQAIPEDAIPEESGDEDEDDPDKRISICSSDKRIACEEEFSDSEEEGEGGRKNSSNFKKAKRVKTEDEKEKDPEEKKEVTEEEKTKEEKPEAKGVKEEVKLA

No constants are given. Whether binding was seen depends on the method and setting. In cells and extracts the contact can be indirect. Some entries that bind do so weakly or less than the wild type. For some assays here: Sequences can lack the tags named with a protein.

One assay has as its target Flag-SMAD3 (UniProt P84022). Nature of the assay: co-IP; Fig. 2b-e: U251 cells overexpressing Flag-RUNX1, Flag-SMAD3 or Flag-SUV39H1 with TGFβ protein for 4 h or 8 h; N9 cells overexpressing the same with LY2109761 for 24 h or 48 h; Western and IP lysis buffer, antibody and protein-A/G PLUS agarose at 4 °C overnight, three washes with RIPA, western blot. On the technique in general: In western blotting, separated proteins are transferred to a membrane and probed.

For another assay, the target named is T1, Flag-SUV39H1 (UniProt O43463).
T1 sequence: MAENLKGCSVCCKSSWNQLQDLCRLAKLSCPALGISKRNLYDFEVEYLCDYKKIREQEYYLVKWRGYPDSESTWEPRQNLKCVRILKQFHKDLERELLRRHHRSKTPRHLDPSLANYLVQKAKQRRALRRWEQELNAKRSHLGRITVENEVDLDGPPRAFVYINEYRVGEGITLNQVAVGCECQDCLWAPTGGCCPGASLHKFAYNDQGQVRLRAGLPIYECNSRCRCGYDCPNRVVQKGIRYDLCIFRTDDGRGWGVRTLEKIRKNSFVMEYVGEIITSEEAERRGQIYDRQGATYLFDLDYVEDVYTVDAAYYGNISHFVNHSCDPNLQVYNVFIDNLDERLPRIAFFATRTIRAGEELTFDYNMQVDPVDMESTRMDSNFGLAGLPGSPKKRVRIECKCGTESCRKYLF
Described as above.

In assay [1] the target is RUNX1 (Runt-related transcription factor 1) (human (endogenous in U251, N9)) (UniProt Q01196). Kind of assay: co-IP; Fig. S9a: co-IP of RUNX1 with five partners taken from a STRING network, 'in vivo'; cells, bait and antibodies not shown; general method: Western and IP lysis buffer, antibody and protein-A/G PLUS agarose at 4 °C overnight, three washes with RIPA, western blot.

The target in assay [2] is Flag-RUNX1 (Runt-Related Transcription Factor 1) (UniProt Q01196). Nature of the assay: co-IP; Fig. 2b-e: U251 cells overexpressing Flag-RUNX1, Flag-SMAD3 or Flag-SUV39H1 with TGFβ protein for 4 h or 8 h; N9 cells overexpressing the same with LY2109761 for 24 h or 48 h; Western and IP lysis buffer, antibody and protein-A/G PLUS agarose at 4 °C overnight, three washes with RIPA, western blot.

Assay [3] has as its target T2, SUV39H1 (human (endogenous in U251, N9)) (UniProt O43463).
T2 sequence: T1 sequence
Kind of assay: co-IP; Fig. S9d: co-IP of p-SMAD3 and SUV39H1; cells and bait not shown; general method: Western and IP lysis buffer, antibody and protein-A/G PLUS agarose at 4 °C overnight, three washes with RIPA, western blot.

On to “RUNX1 (Runt-related transcription factor 1) (from UniProt Q01196 1-453)”, for which the binding result with Flag-SMAD3 and in the assay with Flag-SUV39H1 was “binds” each time. For SMAD4 (from UniProt Q13485 1-552), the binding result in assay [1] is listed as “binds”. As for HDAC1 (from UniProt Q13547 1-482), in assay [1], the binding entry is given as “binds”. On to “p-SMAD3 (phosphorylated SMAD3) (from UniProt P84022 1-425)”, for which the binding entry in assay [2] and in assay [3] was “binds” in each case. For the substance SMAD3 (from UniProt P84022 1-425), the binding result in assay [1] and in assay [2] was “binds” in each case.
